Measurements from ChEMBL document CHEMBL4513158, “CO-ADD screening of RKDF (India) compounds”.
The list shows a part of the results. Measured potencies and affinities stand elsewhere.

test system: Pseudomonas aeruginosa; settings: Concentration 32 ug.mL-1; ASSAY_TEST Inhibition of Bacterial Growth; detection method Absorption (OD600); MEDIA CAMHB; plate type 384well; NBS; CORNING #3640; time 18 hr

SMILES	Inhibition [%]
C=C[C@H]1[C@H](O[C@@H]2O[C@H](CO)[C@@H](O)[C@H](O)[C@H]2O)OC=C2C(=O)OCC[C@]21O [SWERTIAMARIN]	17.49
CN(C)C(=N)NC(=N)N.Cl [METFORMIN HYDROCHLORIDE]	8.65
